Experimental data as given in publication PMC4877382.
For at least one entry, the source does not settle the construct or the ends of the probe. For part of these data: Where a protein sequence is shown, tags need not be part of it.

How the values were obtained:
Experiment in all cases: EMSA with Western blot
[1] = biological target: T1, FIS (Escherichia coli) (UniProt P0A6R3); settings: anti-FIS; EMSA: 10 mM Tris-HCl pH 8, 10 mM MgCl2, 100 mM NaCl, 10 mM KCl, 1 mM spermidine, 0.5 mM DTT, 5% glycerol, 0.08 mg/ml BSA, 50 ng poly dI-dC, 25 C, 15 min; native protein; probe letters rebuilt from the primers and the genome
T1 sequence (looked up, limits assumed): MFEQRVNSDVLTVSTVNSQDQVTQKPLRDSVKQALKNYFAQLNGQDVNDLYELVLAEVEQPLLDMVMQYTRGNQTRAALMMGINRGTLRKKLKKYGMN

[2] = biological target: T2, H-NS (Escherichia coli) (UniProt P0ACF8); settings: anti-H-NS; EMSA: 10 mM Tris-HCl pH 8, 10 mM MgCl2, 100 mM NaCl, 10 mM KCl, 1 mM spermidine, 0.5 mM DTT, 5% glycerol, 0.08 mg/ml BSA, 50 ng poly dI-dC, 25 C, 15 min; native protein; probe letters rebuilt from the primers and the genome
T2 sequence (looked up, limits assumed): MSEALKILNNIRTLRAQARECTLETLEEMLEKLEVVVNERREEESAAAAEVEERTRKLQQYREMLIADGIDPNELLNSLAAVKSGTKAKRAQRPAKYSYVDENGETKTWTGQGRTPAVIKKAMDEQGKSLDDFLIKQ

[3] = system: FIS + H-NS; settings: FIS 70-280 nM and H-NS 800 nM, same complexes seen with both antibodies; EMSA: 10 mM Tris-HCl pH 8, 10 mM MgCl2, 100 mM NaCl, 10 mM KCl, 1 mM spermidine, 0.5 mM DTT, 5% glycerol, 0.08 mg/ml BSA, 50 ng poly dI-dC, 25 C, 15 min; native protein; probe letters rebuilt from the primers and the genome

Measured: binding result

CAACCCGGCATTAAGTAAGCAGTTGATGGAATAGACTTTTATCCACTTTATTGCTGTTTACGGTCCTGATGACAGGACCGTTTTCCAACCGATTAATCATAAATATGAAAAATAATTGTTGCATCACCCGCCAATGCGTGGCTTAATGCACATCAACGGTTTGACGTACAGACCATTAAAGCAGTGTAGTAAGGCAAGTCCCTTCAAGAGTTATCGTTGATACCCCTCGTAGTGCACATTCCTTTAACGCTTCAAAATCTGTAAAGCACGCCATATCGCCGAAAGGCACACTTAATTATTAAAGGTAATACACTATGTCCGGTAAAATGACTGGTATCGTAAAATGG (double strand) [cspA promoter 340 bp PCR fragment]
binds: [1] | [2] | [3]
